Measured values published in article PMC9380471.
These are yes or no findings as the source states them, for the method shown. In cells and extracts the contact can be indirect. Some results given as binding are weak or reduced against the parent protein; the word gives no strength.

Sequences of proteins named here, by UniProt entry; tags and fusion partners are left off.
UniProt Q9NVR2: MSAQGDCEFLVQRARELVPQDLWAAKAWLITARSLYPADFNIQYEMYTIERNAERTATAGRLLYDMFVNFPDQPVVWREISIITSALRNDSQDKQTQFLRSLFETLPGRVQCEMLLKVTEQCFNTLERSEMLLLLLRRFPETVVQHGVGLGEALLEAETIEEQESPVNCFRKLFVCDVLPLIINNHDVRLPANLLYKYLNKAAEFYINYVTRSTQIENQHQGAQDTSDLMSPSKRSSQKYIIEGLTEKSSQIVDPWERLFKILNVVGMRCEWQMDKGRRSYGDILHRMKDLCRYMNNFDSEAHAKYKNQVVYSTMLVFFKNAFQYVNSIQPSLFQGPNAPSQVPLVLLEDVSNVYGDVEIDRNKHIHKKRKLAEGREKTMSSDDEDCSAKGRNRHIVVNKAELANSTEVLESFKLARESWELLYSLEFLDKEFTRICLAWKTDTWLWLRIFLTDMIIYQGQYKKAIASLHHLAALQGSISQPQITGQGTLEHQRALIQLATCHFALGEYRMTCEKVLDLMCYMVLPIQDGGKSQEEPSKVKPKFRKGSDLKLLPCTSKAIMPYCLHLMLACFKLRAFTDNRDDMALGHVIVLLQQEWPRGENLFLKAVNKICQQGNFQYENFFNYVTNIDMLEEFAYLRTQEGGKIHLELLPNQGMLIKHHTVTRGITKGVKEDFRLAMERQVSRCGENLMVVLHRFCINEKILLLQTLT
UniProt Q9NVM9: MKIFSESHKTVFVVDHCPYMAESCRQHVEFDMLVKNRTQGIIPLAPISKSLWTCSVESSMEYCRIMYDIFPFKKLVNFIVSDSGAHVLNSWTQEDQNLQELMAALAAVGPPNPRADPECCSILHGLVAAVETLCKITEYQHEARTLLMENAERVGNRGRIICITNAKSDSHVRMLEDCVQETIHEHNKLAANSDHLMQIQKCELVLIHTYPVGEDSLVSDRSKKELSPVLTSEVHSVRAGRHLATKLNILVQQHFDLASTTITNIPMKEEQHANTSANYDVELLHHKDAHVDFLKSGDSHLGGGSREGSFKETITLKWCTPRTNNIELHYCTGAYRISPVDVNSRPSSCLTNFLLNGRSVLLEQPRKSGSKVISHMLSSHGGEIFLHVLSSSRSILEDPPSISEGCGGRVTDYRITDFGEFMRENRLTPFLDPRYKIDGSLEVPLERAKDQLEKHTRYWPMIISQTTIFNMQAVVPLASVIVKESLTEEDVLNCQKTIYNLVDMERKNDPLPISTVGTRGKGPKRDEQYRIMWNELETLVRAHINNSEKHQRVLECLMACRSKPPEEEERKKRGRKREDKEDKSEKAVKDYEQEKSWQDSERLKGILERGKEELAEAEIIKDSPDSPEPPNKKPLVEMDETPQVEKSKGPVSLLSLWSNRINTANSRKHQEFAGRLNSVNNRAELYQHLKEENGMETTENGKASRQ
UniProt Q96N11: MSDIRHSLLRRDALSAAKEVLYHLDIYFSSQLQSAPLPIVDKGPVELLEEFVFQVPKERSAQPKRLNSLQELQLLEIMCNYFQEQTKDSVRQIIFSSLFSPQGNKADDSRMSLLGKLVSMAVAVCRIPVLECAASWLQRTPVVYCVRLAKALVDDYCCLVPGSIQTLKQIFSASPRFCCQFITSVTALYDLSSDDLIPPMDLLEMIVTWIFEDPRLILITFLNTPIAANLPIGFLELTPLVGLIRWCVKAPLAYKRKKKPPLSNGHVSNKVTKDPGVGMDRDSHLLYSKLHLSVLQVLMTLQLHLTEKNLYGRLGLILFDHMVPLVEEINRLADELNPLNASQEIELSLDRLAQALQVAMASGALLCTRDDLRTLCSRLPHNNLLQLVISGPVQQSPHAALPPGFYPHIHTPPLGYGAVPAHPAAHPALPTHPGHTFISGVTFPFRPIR

Legend:
His8-INTS10 (human) = His8-INTS10 (human) (UniProt Q9NVR2); assay: pull-down; His8-INTS10 (or untagged INTS10) transfected into HEK 293T/17; lysate in IP lysis buffer (25 mM Tris-HCl pH 7.4, 150 mM NaCl, 1 mM EDTA, 1% NP-40, 5% glycerol) + 10 mM imidazole, cobalt magnetic beads, 4 degrees, eluted with 300 mM imidazole; western blot (the legend calls it co-immunoprecipitation)
[1] = biological target: HIS-INTS10 (Expi293) (human) (UniProt Q9NVR2); assay: pull-down + SEC; HIS-INTS10, INTS13, INTS14 and C7orf26 co-expressed in Expi293; Ni-NTA agarose from lysate, then Superdex 200 Increase 10/300 GL in 50 mM HEPES pH 8.0, 150 mM KCl, 10% glycerol, 1 mM EDTA; fractions probed by western blot

Row | binding (His8-INTS10 (human)) | binding [1] | Substance
1 | binds |  | INTS13 (endogenous, HEK293T) (from UniProt Q9NVM9 1-706)
2 | binds |  | endogenous C7orf26 (from UniProt Q96N11 1-449)
3 |  | binds | C7orf26 (overexpressed, Expi293) (from UniProt Q96N11 1-449)
4 |  | binds | INTS13 (overexpressed, Expi293) (from UniProt Q9NVM9 1-706)
